Structures can show the parent of a compound that is named as a salt. The list shows a part of the results. This data set is noisy: repeats of one test often differ as much as different tests do.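 A screen tested FDA-approved drugs combined with one-eighth-MIC colistin against a clinical mcr-1-positive, multidrug-resistant E. coli isolate, measuring OD600 at 24 h. Controls were untreated bacteria (growth) and broth alone (blank). An OD600 under 0.2 marked a combination as active.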
Test system: Escherichia coli 42 (mcr-1-positive clinical isolate)
Test: OD600 after 24 h growth with compound plus colistin (absorbance units (OD600)); higher = more bacterial growth (less inhibition)
Details: first compound 25 µM; colistin concentration 0.5 ug/mL; incubation time 24 h; 37 °C

OD600, inactive:
CN(C)CC[C@@H](c1ccc(Cl)cc1)c1ccccn1 [Dexchlorpheniramine Maleate] + CCC(C)CCCC(=O)N[C@@H](CCN)C(=O)N[C@H](C(=O)N[C@@H](CCN)C(=O)N[C@H]1CCNC(=O)[C@H]([C@@H](C)O)NC(=O)[C@H](CCN)NC(=O)[C@H](CCN)NC(=O)[C@H](CC(C)C)NC(=O)[C@@H](CC(C)C)NC(=O)[C@H](CCN)NC1=O)[C@@H](C)O [colistin] 0.984, C[C@]12CC[C@@H]3c4ccc(O)cc4CC[C@H]3[C@@H]1CC[C@@H]2O [Estradiol] + CCC(C)CCCC(=O)N[C@@H](CCN)C(=O)N[C@H](C(=O)N[C@@H](CCN)C(=O)N[C@H]1CCNC(=O)[C@H]([C@@H](C)O)NC(=O)[C@H](CCN)NC(=O)[C@H](CCN)NC(=O)[C@H](CC(C)C)NC(=O)[C@@H](CC(C)C)NC(=O)[C@H](CCN)NC1=O)[C@@H](C)O [colistin] 1.11, C[C@H](CCC(=O)NCCS(=O)(=O)O)[C@H]1CC[C@H]2[C@@H]3[C@@H](O)C[C@@H]4C[C@H](O)CC[C@]4(C)[C@H]3CC[C@]12C [Tauroursodeoxycholate] + CCC(C)CCCC(=O)N[C@@H](CCN)C(=O)N[C@H](C(=O)N[C@@H](CCN)C(=O)N[C@H]1CCNC(=O)[C@H]([C@@H](C)O)NC(=O)[C@H](CCN)NC(=O)[C@H](CCN)NC(=O)[C@H](CC(C)C)NC(=O)[C@@H](CC(C)C)NC(=O)[C@H](CCN)NC1=O)[C@@H](C)O [colistin] 0.789

Reference: the supplement of paper PMC11546906
